Source: ChEMBL document CHEMBL2203022, “Design, synthesis and antimicrobial evaluation of novel 1-benzyl 2-butyl-4-chloroimidazole embodied 4-azafluorenones via molecular hybridization approach” (2012)

Tests used:
Type in all cases: functional
Staphylococcus aureus = experiment: Antibacterial activity against Staphylococcus aureus MTCC 1430 at 10 ug per disk after 24 hrs by disc diffusion method
In short: (§1)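 Standard 0.5 McFarland inoculum spread evenly over nutrient agar plates with a sterile L-shaped glass spreader. Plates incubated 24 h at 37 °C. Gentamicin as reference standard. Read-out: zone of inhibition in mm, measured in triplicate and compared with control and standard.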

Escherichia coli = experiment: Antibacterial activity against Escherichia coli MTCC 1573 at 10 ug per disk after 24 hrs by disc diffusion method; in short: as §1
Pseudomonas aeruginosa = experiment: Antibacterial activity against Pseudomonas aeruginosa MTCC 2453 at 10 ug per disk after 24 hrs by disc diffusion method; in short: as §1
Candida albicans = experiment: Antifungal activity against Candida albicans MTCC 7253 at 10 ug per disk after 2 to 3 days by disc diffusion method
In short: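 Fungal inoculum: a loopful of each strain suspended in saline, spread evenly on yeast extract potato dextrose agar with a sterile glass spreader. Sterile 5 mm discs loaded with test compound in DMSO placed on the agar. Plates incubated 2–3 days at room temperature. Nystatin as reference standard. Zones of inhibition measured and compared with control and standard.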

Row | Sequence | inhibition zone (IZ) (Staphylococcus aureus) | inhibition zone (IZ) (Escherichia coli) | inhibition zone (IZ) (Pseudomonas aeruginosa) | inhibition zone (IZ) (Candida albicans)
1 | GENTAMICIN | 15 mm | 12 mm | 15 mm | –
2 | NYSTATIN | – | – | – | 8 mm
